Measurements from “University of Dundee, Small-Polar-MMV Screening Library” (2021), ChEMBL document CHEMBL3988442.

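Assay of Toxoplasma gondii numbers, read through their beta-galactosidase reporter with a colour substrate. Compounds at 50 µM. Higher reads as fewer parasites (inferred from which compounds were picked for retests). Of about 18,000 compounds tested this way, about 170 (0.94%) reached 50% or more in at least one test.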

The filed quantity is “Percent Effect” (%).
How 0% and 100% were set is not recorded. Most values in the screen are low, and negative values occur.
This is an unselected part of the compounds tested.

| structure | effect |
|---|---|
| `CC(O)CNC(=O)c1ccc(-c2ccccc2F)o1` (stereo unspecified) | 0.02788 |
| `COCCNS(=O)(=O)c1ccc(CN)cc1` | -7.365 |
| `CSCC(=O)N1CCCC(c2nccn2C)C1` (stereo unspecified) | -4.626 |
| `CCN1CCN(c2ccccc2O)CC1` | 41.51 |
| `CN(CC1COCCO1)C(=O)c1ccc(CO)cc1` (stereo unspecified) | 2.115 |
| `CN1Cc2cc(-c3csc(N)n3)ccc2NC1=O` | 6.184 |
| `CNC(=O)CCc1ccc(S(=O)(=O)NCC(C)C)cc1` | -32.52 |
| `CCOC(=O)N1CCC(C(N)=O)CC1` | -14.88 |
| `N#Cc1ccccc1C(=O)N1CCOCC(O)C1` (stereo unspecified) | -3.928 |
| `O=C(Nc1cnccn1)c1ccc(F)cn1` | 3.391 |
| `CCN(CC(C)(C)O)C(=O)c1nccc2ccccc12` | -2.694 |
| `CCc1ncc(C(=O)N2CCCC(O)(CO)CC2)cn1` (stereo unspecified) | -2.098 |
| `CNCCCN1C(=O)c2ccccc2C1=O` | -4.433 |
| `CN(C)[C@H]1CN(C(=O)CCn2cncn2)C[C@@H]1C1CC1` | -4.161 |
| `O=C(c1ccc(N2CCCCC2=O)cc1)N1CCC1` | -23.15 |
| `COc1cc(CNC(=O)C2CCCCN2)ccc1C` (stereo unspecified) | 2.311 |
| `CN(C)C(=O)CCCS(=O)(=O)c1ccc(C#N)cc1Cl` | -6.846 |
| `COc1ccc(Br)c(C(=O)N(CC(N)=O)C(C)C)c1` | -9.429 |
| `CN(C)S(=O)(=O)NCC(O)c1ccc(Cl)c(F)c1` (stereo unspecified) | 6.384 |
| `Nc1ccc(CC2CCNCC2)cn1` | -5.218 |
| `C[C@@H]1CN(c2nccc(N)n2)CC[C@]1(C)O` | 4.326 |
| `CCN(CC(N)=O)C(=O)Cc1cc(F)ccc1F` | -14.63 |
| `COc1cccc(F)c1C(=O)N[C@@H]1C[C@@H]2OCC[C@@H]21` | 6.395 |
| `Cc1nc(CN2CCCNCC2)cs1` | 4.308 |
| `COCc1noc(CN2CCNCC2)n1` | -1.554 |
| `N#Cc1cc(F)ccc1N1CCNCC1` | 12.56 |
| `Cc1nnc(CN(C)C(CCO)c2ccccc2)o1` (stereo unspecified) | -6.514 |
| `CC(C)CNC(=O)CC1Nc2ccccc2NC1=O` (stereo unspecified) | 2.842 |
| `COCCOc1ccc(NC(=O)CSC(C)(C)C)cn1` | -6.833 |
| `OC(CNCc1csnn1)Cc1ccc(F)cc1F` (stereo unspecified) | 2.791 |
| `Oc1cccc(CN2CCN(CC3CCOC3)CC2)c1` (stereo unspecified) | -7.198 |
| `Cc1ccc2nc(C(=O)N[C@H](C)C(N)=O)c(F)n2c1` | -3.538 |
| `NS(=O)(=O)Cc1cccnc1` | -3.924 |
| `O=c1[nH]c(=O)c2ccc(Cl)cc2o1` | -20.72 |
| `Cc1ccc(C)c(CC(=O)N2CCCNCC2)c1` | -2.111 |
| `CCC1(CNC(=O)NCc2nnnn2C2CC2)CCC1` | -7.929 |
| `O=C(NCCn1ccnc1)c1ccc(C(F)(F)F)nc1` | 6.908 |
| `CNCc1c[nH]nc1C` | -6.636 |
| `CSc1nc(C(=O)N2CCSCC2)c2ccccn12` | -13.37 |
| `CC(=O)N1CCC(C(=O)Nc2ccc(C)c(C)c2)CC1` | 13.47 |
| `NC(=O)C1CN(CCCc2ccccc2)CCO1` (stereo unspecified) | 1.949 |
| `Cc1ccccc1CC(=O)N1CCNCC1` | 3.52 |
| `O[C@@H]1CC(F)(F)C[C@H]1O` | -22.4 |
| `CC(=O)NCC1CCN(Cc2cc(C(C)C)no2)C1` (stereo unspecified) | -6.294 |
| `N#Cc1ccc(NCC(=O)Nc2ncccc2O)cc1` | -10.97 |
| `CCn1cc(C(=O)NC(C)c2nc(C3CC3)no2)cn1` (stereo unspecified) | -5.106 |
| `Cc1c[nH]c(CNC(=O)CSc2ccccn2)n1` | -8.739 |
| `NCCS(=O)(=O)NCC1CCC1` | 2.025 |
| `CN1CCN(CC(O)CN(C)c2ccccn2)CC1` (stereo unspecified) | 0 |
| `CC(C)NC(=O)Cn1cnc2c1c(=O)n(C)c(=O)n2C` | -10.56 |
| `CCOc1ccccc1OC1CCN(CC(N)=O)CC1` | -12.45 |
| `NS(=O)(=O)c1ccccc1CNC(=O)C1CCCCO1` (stereo unspecified) | -12.56 |
| `N#Cc1c[nH]c(C(=O)NCC2CCCS2)c1` (stereo unspecified) | 4.362 |
| `CN1CCOC(CCNC(=O)CCN2CCCCO2)C1` (stereo unspecified) | 14.76 |
| `N#Cc1cnn(C2CCOCC2)c1N` | -7.716 |
| `O=C(c1c[nH]c(=O)c2ccccc12)N1CCOCC1` | -7.99 |
| `CCN1CCN(C(C)CNC(=O)c2scnc2C)CC1` (stereo unspecified) | -1.619 |
| `CCCC(=O)Nc1nnc(-c2ccccn2)s1` | -4.779 |
| `CC(=O)c1cc(CN2C[C@@H]3[C@@H](CN(C)C)[C@@H]3C2)n(C)c1` | -7.864 |
| `CCS(=O)(=O)CCNC(=O)C(CC#N)c1ccccc1` (stereo unspecified) | -5.907 |
| `COCCN1CCC(NC(=O)Nc2ccccc2)C1` (stereo unspecified) | 11.36 |
| `Fc1ccc(C2CCCCN2)nc1` (stereo unspecified) | 18.81 |
| `CC1CCN(Cc2ccc(C#N)s2)CCS1(=O)=O` (stereo unspecified) | -3.483 |
| `CC(C)n1nnnc1SCCS(=O)(=O)c1ccccc1` | -6.93 |
| `C=C(C)CNC(=O)Nc1ccn(-c2ncccc2Cl)n1` | 0 |
| `O=C(CNc1ccccc1Cl)Nc1cccnc1O` | 12.26 |
| `COc1cc(CN)ccc1OCC(F)(F)F` | 5.516 |
| `CC(NC(=O)CNc1ccccc1F)c1ccco1` (stereo unspecified) | -3.979 |
| `Cc1c[nH]c(CN(C)CC2(CO)CCOCC2)n1` | 8.699 |
| `OCC(O)CSc1ncn(-c2ccccc2)n1` (stereo unspecified) | -3.499 |
| `COCC(C)(CCO)NCC(=O)Nc1ccccc1I` (stereo unspecified) | 3.55 |
| `Cc1ccc(CCN)cc1` | 21.82 |
| `NCc1cccc(C(=O)N2CCOCC2)c1` | 10.76 |
| `CCN1Cc2ccccc2CC1C(N)=O` (stereo unspecified) | 7.764 |
| `OC1(C(F)F)CNC1` | -12.85 |
| `CS(=O)(=O)N1CCCCC1CN1CCCC1=O` (stereo unspecified) | -2.057 |
| `CN1CCCN(S(=O)(=O)c2ccccc2F)CC1` | -3.438 |
| `CS(=O)(=O)NCCNCc1cccc(-n2cccn2)c1` | 8.983 |
| `CCOc1ccc(S(=O)(=O)Nc2cccnc2)cc1` | 2.968 |
| `CN(C)c1ccc(NC(=O)NCC(F)(F)F)nc1` | 17.14 |
| `COc1ccccc1NC(=O)c1csnn1` | -14.26 |
| `Nc1nnc(SCc2ccccc2F)s1` | -8.664 |
| `CC(C)C1CCCN(S(N)(=O)=O)CC1` (stereo unspecified) | 24.86 |
| `COc1ccc2[nH]c(C(=O)NCC3CCCO3)cc2c1` (stereo unspecified) | 9.835 |
| `CC(C)N(C)S(=O)(=O)NC1CCOc2ccccc21` (stereo unspecified) | 4.476 |
| `COCC(=O)N[C@H]1CC[C@H](N)CC1` | -12.93 |
| `CC(O)CN1CCN(C(=O)c2cc(Br)c[nH]2)CC1` (stereo unspecified) | -0.4767 |
| `CCOc1ccccc1N(C)C(=O)c1ccncc1F` | 4.938 |
| `CCOC(=O)Nc1ccc(S(=O)(=O)NC2CC2)cc1` | 1.581 |
| `Cc1cc(NC(=O)CN2CCCC(N(C)C)C2)n(C)n1` (stereo unspecified) | -6.499 |
| `CC(C)(N)CNS(=O)(=O)c1cccc(Br)c1` | -0.3435 |

Some entries from above, unchanged:

structure	effect
CC(C)N(C)S(=O)(=O)NC1CCOc2ccccc21 (stereo unspecified)	4.476
COc1cccc(F)c1C(=O)N[C@@H]1C[C@@H]2OCC[C@@H]21	6.395
CCOc1ccccc1OC1CCN(CC(N)=O)CC1	-12.45
CN(C)C(=O)CCCS(=O)(=O)c1ccc(C#N)cc1Cl	-6.846
CCOC(=O)N1CCC(C(N)=O)CC1	-14.88
CCN1Cc2ccccc2CC1C(N)=O (stereo unspecified)	7.764
N#Cc1ccccc1C(=O)N1CCOCC(O)C1 (stereo unspecified)	-3.928
COCCN1CCC(NC(=O)Nc2ccccc2)C1 (stereo unspecified)	11.36
COc1cc(CNC(=O)C2CCCCN2)ccc1C (stereo unspecified)	2.311
Cc1nnc(CN(C)C(CCO)c2ccccc2)o1 (stereo unspecified)	-6.514
NS(=O)(=O)Cc1cccnc1	-3.924